{
  "sequences": {"note": "By UniProt entry, the sequences of proteins in these tests, tags left out.", "UniProt P31645, whole entry": "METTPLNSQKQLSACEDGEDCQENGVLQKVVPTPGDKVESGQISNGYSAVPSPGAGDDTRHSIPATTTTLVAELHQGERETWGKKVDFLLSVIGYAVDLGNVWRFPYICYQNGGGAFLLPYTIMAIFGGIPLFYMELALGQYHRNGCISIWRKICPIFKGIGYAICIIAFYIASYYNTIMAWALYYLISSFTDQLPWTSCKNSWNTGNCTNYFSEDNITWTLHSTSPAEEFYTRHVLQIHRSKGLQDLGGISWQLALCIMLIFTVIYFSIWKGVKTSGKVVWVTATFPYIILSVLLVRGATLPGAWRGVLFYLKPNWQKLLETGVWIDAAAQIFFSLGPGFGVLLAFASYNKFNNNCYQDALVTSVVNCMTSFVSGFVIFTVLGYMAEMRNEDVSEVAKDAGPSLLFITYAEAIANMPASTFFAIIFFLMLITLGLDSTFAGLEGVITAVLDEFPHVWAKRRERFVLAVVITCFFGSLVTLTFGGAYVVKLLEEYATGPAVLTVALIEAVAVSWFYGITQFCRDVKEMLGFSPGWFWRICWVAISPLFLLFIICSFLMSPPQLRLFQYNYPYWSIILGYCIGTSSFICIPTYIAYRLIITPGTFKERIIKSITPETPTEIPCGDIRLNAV", "UniProt Q01959, whole entry": "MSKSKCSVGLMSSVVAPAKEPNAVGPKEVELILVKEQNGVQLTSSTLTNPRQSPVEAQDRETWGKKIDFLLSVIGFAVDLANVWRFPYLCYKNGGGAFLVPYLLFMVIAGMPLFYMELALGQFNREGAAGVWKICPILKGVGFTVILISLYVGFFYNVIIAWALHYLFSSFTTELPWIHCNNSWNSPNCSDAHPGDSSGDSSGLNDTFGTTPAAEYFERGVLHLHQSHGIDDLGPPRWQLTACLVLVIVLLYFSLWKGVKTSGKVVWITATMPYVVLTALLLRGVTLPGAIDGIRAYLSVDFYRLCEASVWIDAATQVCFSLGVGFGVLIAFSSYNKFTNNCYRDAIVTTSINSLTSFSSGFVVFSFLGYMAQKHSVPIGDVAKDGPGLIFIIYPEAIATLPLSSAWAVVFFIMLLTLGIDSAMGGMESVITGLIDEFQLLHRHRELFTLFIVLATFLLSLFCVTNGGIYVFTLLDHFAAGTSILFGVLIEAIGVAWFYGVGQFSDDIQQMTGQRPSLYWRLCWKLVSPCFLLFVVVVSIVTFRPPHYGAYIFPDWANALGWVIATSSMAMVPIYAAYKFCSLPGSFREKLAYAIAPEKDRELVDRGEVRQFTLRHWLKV", "UniProt P23975, whole entry": "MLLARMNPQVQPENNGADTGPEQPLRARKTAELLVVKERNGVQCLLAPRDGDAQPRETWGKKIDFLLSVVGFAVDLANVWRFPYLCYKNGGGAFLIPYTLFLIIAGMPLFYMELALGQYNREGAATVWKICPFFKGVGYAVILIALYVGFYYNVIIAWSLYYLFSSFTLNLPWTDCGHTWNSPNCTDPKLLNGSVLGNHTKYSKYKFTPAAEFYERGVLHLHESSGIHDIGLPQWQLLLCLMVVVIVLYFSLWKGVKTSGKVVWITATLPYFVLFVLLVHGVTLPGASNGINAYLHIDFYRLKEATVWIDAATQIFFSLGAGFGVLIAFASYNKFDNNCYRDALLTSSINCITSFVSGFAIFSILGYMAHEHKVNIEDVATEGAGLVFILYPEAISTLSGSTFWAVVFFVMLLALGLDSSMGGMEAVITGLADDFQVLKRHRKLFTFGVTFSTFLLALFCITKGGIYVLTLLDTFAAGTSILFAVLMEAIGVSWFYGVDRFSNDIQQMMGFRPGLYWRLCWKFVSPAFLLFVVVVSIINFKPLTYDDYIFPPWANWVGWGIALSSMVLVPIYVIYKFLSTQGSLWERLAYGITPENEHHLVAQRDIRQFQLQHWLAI"},
  "source": "paper PMC5773950",
  "about": "(British Journal of Pharmacology, 2018)",
  "key": {"5‐HT2C receptor": {"molecular_target": "T1, 5‐HT2C receptor (Homo sapiens, UniProt P28335)", "T1 sequence (P28335 33-458)": "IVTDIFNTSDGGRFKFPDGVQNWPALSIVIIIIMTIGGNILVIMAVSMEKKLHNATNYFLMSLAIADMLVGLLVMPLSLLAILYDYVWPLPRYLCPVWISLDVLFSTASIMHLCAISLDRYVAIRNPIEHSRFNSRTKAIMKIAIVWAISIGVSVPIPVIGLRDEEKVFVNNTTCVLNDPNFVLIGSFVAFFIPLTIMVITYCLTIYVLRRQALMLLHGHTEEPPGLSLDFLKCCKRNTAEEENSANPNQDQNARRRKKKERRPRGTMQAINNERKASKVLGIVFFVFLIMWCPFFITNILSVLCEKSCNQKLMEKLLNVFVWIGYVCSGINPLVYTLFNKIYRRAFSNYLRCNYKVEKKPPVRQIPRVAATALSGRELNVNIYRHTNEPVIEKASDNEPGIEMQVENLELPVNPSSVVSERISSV", "assay": "biochemical", "type": "binding"}, "human SERT": {"molecular_target": "human SERT (Homo sapiens, UniProt P31645)", "assay": "cell-based"}, "human DAT": {"molecular_target": "human DAT (Homo sapiens, UniProt Q01959)", "assay": "cell-based"}, "human NET": {"molecular_target": "human NET (Homo sapiens, UniProt P23975)", "assay": "cell-based"}},
  "note": "Where two headings read alike, the source gives them in different places.",
  "data": [
    {"smiles": "CCOC(=O)C1(c2ccccc2)CCN(C)CC1", "note": "[Pethidine]", "values": [
      {"measurement": "Ki", "setting": "5‐HT2C receptor", "value": "15000 ± 100", "unit": "nM"},
      {"measurement": "IC50", "setting": "human SERT", "value": 1600, "unit": "nM"},
      {"measurement": "IC50", "setting": "human SERT; SERT inhibition in vitro IC50", "value": 1600, "unit": "nM"},
      {"measurement": "IC50", "setting": "human DAT", "value": "> 100000", "unit": "nM"},
      {"measurement": "IC50", "setting": "human NET", "value": 1600, "unit": "nM"}
    ]}
  ]
}
